Laboratory results as given in PubChem BioAssay (EPA / NIEHS).
Several values for one entry are separate records, joined by “and”; a condition that tells them apart may be missing. Equal entries are not always repeated. Inconclusive results, whose numbers are uncertain, are shown with a selection of clear calls. Potencies of inconclusive entries are doubtful fits and often do not repeat. Activity calls are given as the source filed them. The calls were made as follows: active = hit-call score of the fitted dose curve at least 0.9, where 1 is the maximum; inconclusive = response in the unintended direction; inactive = score below 0.9.

Amino acid sequences for entries named in this document (tags omitted). A change or cut given only in a name is not applied to a line headed by its entry.
UniProt P07333, whole entry, looked up: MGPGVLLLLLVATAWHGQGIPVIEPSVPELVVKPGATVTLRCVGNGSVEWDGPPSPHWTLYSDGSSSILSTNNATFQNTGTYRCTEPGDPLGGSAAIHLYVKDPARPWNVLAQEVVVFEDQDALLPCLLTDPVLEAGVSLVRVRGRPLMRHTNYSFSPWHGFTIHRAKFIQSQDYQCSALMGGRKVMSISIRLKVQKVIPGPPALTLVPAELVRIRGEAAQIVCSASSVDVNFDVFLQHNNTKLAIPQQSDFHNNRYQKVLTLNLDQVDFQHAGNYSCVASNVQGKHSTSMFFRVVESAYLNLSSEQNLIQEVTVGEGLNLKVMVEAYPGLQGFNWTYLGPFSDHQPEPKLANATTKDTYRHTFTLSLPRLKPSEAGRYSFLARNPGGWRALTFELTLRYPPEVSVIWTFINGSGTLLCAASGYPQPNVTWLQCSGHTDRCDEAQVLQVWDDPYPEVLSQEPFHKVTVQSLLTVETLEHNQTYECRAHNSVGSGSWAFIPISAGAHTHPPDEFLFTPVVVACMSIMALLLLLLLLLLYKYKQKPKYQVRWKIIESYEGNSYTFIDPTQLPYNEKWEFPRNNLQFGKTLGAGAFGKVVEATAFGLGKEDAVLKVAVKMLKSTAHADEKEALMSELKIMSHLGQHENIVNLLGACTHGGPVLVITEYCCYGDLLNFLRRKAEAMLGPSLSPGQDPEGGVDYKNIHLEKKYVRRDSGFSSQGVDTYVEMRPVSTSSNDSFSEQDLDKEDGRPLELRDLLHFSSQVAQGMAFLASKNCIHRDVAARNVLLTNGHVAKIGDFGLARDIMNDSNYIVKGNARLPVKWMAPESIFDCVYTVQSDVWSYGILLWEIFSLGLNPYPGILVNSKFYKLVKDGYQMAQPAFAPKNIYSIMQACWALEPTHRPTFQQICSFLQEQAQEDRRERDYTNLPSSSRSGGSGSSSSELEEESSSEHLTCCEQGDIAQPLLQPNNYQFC
UniProt P08246: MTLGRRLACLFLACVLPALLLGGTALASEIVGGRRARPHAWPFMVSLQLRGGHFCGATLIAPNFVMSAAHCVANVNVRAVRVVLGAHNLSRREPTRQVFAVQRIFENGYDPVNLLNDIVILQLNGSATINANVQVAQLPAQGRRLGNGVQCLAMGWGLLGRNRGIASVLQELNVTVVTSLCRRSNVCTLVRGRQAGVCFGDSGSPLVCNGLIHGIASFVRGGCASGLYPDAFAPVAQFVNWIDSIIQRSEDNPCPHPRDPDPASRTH
UniProt P54762: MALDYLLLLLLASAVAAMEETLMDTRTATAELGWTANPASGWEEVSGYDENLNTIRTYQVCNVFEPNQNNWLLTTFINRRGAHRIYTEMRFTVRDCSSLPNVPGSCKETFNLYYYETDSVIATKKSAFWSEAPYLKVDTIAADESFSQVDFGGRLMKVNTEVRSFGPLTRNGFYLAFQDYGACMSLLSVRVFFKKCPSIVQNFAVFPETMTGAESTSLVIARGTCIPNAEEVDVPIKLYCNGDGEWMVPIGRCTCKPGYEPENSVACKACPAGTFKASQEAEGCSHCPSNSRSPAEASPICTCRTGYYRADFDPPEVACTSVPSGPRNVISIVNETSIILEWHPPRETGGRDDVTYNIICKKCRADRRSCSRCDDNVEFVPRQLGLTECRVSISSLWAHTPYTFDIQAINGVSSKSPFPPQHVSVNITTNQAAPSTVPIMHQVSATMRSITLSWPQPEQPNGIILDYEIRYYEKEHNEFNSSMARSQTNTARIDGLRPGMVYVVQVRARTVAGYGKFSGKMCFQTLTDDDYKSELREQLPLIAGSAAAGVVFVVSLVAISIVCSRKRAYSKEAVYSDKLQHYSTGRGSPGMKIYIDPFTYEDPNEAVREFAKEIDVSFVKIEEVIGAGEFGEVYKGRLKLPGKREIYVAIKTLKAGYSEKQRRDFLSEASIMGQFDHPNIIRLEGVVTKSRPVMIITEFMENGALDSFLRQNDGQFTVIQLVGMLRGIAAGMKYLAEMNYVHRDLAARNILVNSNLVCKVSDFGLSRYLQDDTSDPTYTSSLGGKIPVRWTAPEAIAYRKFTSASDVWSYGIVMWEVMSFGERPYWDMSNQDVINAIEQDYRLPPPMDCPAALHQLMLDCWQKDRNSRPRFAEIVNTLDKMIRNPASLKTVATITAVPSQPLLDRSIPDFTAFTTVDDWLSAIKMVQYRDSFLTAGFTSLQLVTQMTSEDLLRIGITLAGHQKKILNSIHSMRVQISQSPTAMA
UniProt P06276, whole entry, looked up: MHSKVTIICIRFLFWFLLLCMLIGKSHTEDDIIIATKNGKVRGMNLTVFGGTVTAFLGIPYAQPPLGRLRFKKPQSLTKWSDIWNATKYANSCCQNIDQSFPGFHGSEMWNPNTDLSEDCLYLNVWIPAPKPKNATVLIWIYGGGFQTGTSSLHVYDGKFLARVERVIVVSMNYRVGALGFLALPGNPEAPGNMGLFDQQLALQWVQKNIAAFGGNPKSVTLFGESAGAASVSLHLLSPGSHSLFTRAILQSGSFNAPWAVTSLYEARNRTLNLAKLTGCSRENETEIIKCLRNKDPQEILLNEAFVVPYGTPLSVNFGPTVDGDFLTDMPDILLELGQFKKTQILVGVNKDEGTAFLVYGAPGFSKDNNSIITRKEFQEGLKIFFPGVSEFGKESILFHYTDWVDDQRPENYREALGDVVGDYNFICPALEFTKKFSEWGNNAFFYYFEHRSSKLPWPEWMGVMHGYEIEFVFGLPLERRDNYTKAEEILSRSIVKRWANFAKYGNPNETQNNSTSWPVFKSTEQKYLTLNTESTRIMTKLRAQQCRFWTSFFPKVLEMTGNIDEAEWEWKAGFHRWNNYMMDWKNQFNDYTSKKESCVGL
UniProt P21709: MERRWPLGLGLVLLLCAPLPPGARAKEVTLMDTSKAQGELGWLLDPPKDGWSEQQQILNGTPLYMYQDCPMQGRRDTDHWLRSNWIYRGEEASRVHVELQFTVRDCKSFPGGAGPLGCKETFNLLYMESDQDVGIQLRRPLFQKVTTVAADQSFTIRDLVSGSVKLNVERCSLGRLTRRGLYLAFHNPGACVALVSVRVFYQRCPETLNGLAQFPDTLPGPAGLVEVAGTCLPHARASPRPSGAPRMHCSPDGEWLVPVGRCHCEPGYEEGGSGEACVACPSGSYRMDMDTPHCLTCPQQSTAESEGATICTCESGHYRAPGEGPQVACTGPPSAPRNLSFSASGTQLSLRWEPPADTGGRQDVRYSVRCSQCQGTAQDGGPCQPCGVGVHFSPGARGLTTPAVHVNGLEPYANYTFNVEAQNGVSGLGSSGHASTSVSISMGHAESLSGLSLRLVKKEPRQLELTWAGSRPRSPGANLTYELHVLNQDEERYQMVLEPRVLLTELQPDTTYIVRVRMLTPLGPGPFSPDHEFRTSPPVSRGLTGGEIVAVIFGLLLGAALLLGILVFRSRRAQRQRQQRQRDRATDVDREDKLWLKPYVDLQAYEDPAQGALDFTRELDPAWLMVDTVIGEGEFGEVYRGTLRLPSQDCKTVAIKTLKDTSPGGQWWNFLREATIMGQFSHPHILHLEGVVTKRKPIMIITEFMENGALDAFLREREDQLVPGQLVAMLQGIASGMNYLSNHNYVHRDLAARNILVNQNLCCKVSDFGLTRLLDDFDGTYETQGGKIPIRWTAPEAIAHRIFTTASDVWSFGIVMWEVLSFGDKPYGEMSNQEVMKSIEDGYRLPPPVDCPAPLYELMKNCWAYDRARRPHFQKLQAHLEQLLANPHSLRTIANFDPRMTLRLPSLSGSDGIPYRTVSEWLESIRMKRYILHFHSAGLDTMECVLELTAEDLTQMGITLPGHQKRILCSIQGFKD
UniProt P06241, whole entry, looked up: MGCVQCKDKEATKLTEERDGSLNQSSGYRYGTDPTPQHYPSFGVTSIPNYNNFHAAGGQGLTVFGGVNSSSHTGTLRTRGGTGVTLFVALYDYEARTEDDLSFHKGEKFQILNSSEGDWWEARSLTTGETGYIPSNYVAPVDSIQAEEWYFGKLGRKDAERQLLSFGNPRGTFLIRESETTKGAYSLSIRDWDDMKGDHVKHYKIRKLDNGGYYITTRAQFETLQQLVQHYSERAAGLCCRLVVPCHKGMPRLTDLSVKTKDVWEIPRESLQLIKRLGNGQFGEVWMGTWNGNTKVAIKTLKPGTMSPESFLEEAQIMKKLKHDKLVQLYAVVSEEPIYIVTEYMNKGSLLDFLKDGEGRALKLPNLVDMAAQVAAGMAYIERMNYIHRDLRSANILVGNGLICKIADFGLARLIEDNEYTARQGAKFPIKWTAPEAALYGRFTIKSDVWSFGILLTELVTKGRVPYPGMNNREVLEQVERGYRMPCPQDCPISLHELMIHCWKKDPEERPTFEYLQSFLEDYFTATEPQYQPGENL
UniProt P07948: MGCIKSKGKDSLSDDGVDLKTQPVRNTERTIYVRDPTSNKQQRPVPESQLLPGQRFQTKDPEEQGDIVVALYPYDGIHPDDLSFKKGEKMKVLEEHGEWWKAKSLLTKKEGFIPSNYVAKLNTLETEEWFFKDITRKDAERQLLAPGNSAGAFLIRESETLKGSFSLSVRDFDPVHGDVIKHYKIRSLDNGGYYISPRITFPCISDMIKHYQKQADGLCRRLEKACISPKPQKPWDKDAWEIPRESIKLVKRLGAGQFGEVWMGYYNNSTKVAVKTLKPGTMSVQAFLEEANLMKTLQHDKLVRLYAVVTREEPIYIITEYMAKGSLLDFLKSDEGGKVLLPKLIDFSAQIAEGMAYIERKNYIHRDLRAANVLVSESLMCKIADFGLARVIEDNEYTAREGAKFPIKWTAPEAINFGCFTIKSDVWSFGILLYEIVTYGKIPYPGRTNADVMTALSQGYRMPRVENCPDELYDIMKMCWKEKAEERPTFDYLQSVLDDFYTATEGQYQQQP

The molecules below were run against human Colony Stimulating Factor 1 Receptor (CSF1R), CSF1R (gene 1436) (UniProt P07333) (assay: NVS_ENZ_hCSF1R: NovaScreen (NVS) Enzymatic Assay for human Colony Stimulating Factor 1 Receptor (CSF1R) (AID 2283150)).
Outline: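 Cell-free recombinant human CSF1R kinase with fluorescent substrate, product separated by electrophoretic mobility shift; read 1 h after dosing. Primary screen at 25 uM in duplicate, actives then in concentration-response up to 50 uM, relative to DMSO.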
In the case of `CC(=O)C(C)=CC1C(C)=CCCC1(C)C` (stereo not given), the AC50 is reported as inconclusive: 13 µM.
With `Nc1nc(Cl)nc2c1ncn2[C@H]1C[C@H](O)[C@@H](CO)O1` the outcome was “inactive”.
In the case of `Cc1ccc2ncccc2c1`, the AC50 is reported as inconclusive: 25 µM.
With `CC1=C(/C=C/C(C)=C/C=C/C(C)=C/CO)C(C)(C)CCC1` the AC50 was inconclusive: 7.04 µM.
`Clc1nc(Cl)c(Cl)c(Cl)c1Cl` was tested, and the AC50 was inconclusive: 25 µM.

The molecules below were run against human Elastase, ELANE (gene 1991) (UniProt P08246) (assay: NVS_ENZ_hElastase: NovaScreen (NVS) Enzymatic Assay for human Elastase (AID 2283153)).
Experimental: NVS_ENZ_hElastase is a biochemical, single-readout assay that uses extracted gene-proteins from Human neutrophils in a cell-free assay. Measurements were taken 1.5 hours after chemical dosing in a 96-well plate.NVS_ENZ_hElastase is one of one assay component(s) measured or calculated from the NVS_ENZ_hElastase assay. It is designed to make measurements of enzyme activity, a form of enzyme reporter, as detected with absorbance signals by Spectrophotometry technology.Data from the assay component NVS_ENZ_hElastase was analyzed into 1 assay endpoint. This assay endpoint, NVS_ENZ_hElastase, was analyzed in the positive analysis fitting direction relative to DMSO as the negative control and baseline of activity. Using a type of enzyme reporter, loss-of-signal activity can be used to understand changes in the enzymatic activity as they relate to the gene ELANE. Furthermore, this assay endpoint can be referred to as a primary readout, because this assay has produced multiple assay endpoints where this one serves a enzymatic activity function. To generalize the intended target to other relatable targets, this assay endpoint is annotated to the protease intended target family, where the subfamily is serine protease.
Binding assays used specific radioligands (tritiated, iodinated) with non-radioactive competitive displacement ligands in agonist or antagonist protocols (as indicated) and various reference compounds and inhibitors to titrate specific binding to receptors and transporters. Most enzyme assays (CYPs, kinases, phosphatases, proteases, HDACs) used recombinant protein and specific substrates (fluorescence mostly, some colorimetric and radioactive) and inhibitors, followed by a biochemical separation of substrate and product. All assays for the biochemical HTS were initially run in duplicate at a single concentration (10 uM for CYP450 assays and 25 uM for all others). […]
In the case of `CS(=O)(=O)c1ccc([C@@H](CC2CCCC2)C(=O)Nc2cnccn2)cc1Cl`, the AC50 is reported as inconclusive: 25 µM.
`CC(C)(C)c1csc(-c2cc3cc(OCc4ccccc4CC(=O)O)ccc3o2)n1` was tested, and the AC50 was active: 12.5 µM.
In the case of `CC1(C)CC(N=C=O)CC(C)(CN=C=O)C1` (stereo not given), the AC50 is reported as inconclusive: 44.7 µM.

These molecules were tested against human Ephrin type-B Receptor 1 (EphB1), EPHB1 (gene 2047) (UniProt P54762) (assay: NVS_ENZ_hEphB1: NovaScreen (NVS) Enzymatic Assay for human Ephrin type-B Receptor 1 (EphB1) (AID 2283154)).
Outline: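 Cell-free kinase assay with recombinant enzyme, fluorescent substrate and electrophoretic mobility-shift separation of substrate and product; read 1 h after dosing. Single-concentration duplicate screen at 25 uM; loss of signal versus DMSO baseline.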
In the case of `COC(=O)CSc1cc(N=c2sc(=O)n3n2CCCC3)c(F)cc1Cl`, the outcome is reported as “inactive”.
In the case of `CCC(C)OC(=O)N1CCCCC1CCO` (stereo not given), the AC50 is reported as inconclusive: 8.52 µM.
`CCCN(CCC)C(=O)SCC` was tested, and the AC50 was inconclusive: 7.9 µM.

These molecules were tested against human Esterase Plasma (ES), BCHE (gene 590) (UniProt P06276) (assay: NVS_ENZ_hES: NovaScreen (NVS) Enzymatic Assay for human Esterase Plasma (ES) (AID 2283157)).
Outline: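 Chemicals were added to plasma-extracted human enzyme in a cell-free format, and activity was read colorimetrically after 0.25 hour. Activity loss was referenced to DMSO; concentration-response top dose was 50 uM.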
For `CC(C)(C)CC(C)(C)c1ccc(OCCOCC[N+](C)(C)Cc2ccccc2)cc1`, the AC50 was active: 0.791 µM.
In the case of `CCN(CC)C(=S)SSC(=S)N(CC)CC`, the outcome is reported as “inactive”.
`CCC(C)=NO` was tested, and the AC50 was inconclusive: 25 µM.

The molecules below were run against human Ephrin type-A Receptor 1 (EphA1), EPHA1 (gene 2041) (UniProt P21709) (assay: NVS_ENZ_hEphA1: NovaScreen (NVS) Enzymatic Assay for human Ephrin type-A Receptor 1 (EphA1) (AID 2283158);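 also: activity is signal loss versus DMSO meaning EphA1 kinase inhibition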).
Outline: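 Cell-free kinase activity with recombinant protein, 1 hour after dosing; product separated by electrophoretic mobility shift, fluorescence read. Primary screen at 25 uM in duplicate; hits run as concentration-response up to 50 uM, relative to DMSO.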
`CCC(C)c1cc([N+](=O)[O-])cc([N+](=O)[O-])c1OC(=O)OC(C)C` (stereo not given) was tested, and the AC50 was active: 14 µM.
`C=C(C)[C@H]1CC=C(C)C(=O)C1` was tested, and the AC50 was inconclusive: 0.13 µM.
`N#Cc1ccccc1` was tested, and the AC50 was inconclusive: 6.82 µM.
In the case of `Cc1cc(=O)[nH]c(C(C)C)n1`, the AC50 is reported as active: 9.31 µM.
For `CC(=O)c1c(C)c([N+](=O)[O-])c(C(C)(C)C)c([N+](=O)[O-])c1C`, the AC50 was inconclusive: 7.15 µM.
With `Oc1c(Cl)cc(Cl)c(Cl)c1Cc1c(O)c(Cl)cc(Cl)c1Cl` the AC50 was inconclusive: 25 µM.
For `Brc1nc2ccccc2s1`, the outcome was “inactive”.
In the case of `CC1(C)NC(=O)NC1=O`, the AC50 is reported as inconclusive: 15.3 µM.
With `CC1CCC2CC1C2(C)C` (stereo not given) the AC50 was active: 21.3 µM.
For `NC(=O)NC(N)=O`, the outcome was “inactive”.
For `CC(=O)CCc1ccccc1`, the AC50 was inconclusive: 6.19 µM.
With `CCCCCCCCCC/C=C/C1CC(=O)OC1=O` (stereo not given) the AC50 was inconclusive: 6.43 µM.
In the case of `C=C(C)C(=O)OCCOCCOCCOC(=O)C(=C)C`, the AC50 is reported as inconclusive: 0.626 µM.
In the case of `Cc1ccc2ncccc2c1`, the AC50 is reported as inconclusive: 25 µM.
`CC(=O)OC(C)c1ccccc1` (stereo not given) was tested, and the outcome was “inactive”.
In the case of `C=C(C)OC(C)=O`, the outcome is reported as “inactive”.
With `O=C=NC1CCC(CC2CCC(N=C=O)CC2)CC1` (stereo not given) the AC50 was inconclusive: 0.218 µM.
For `C=CCOC(=O)CC(C)C`, the outcome was “inactive”.
`CCC(C)OC(=O)N1CCCCC1CCO` (stereo not given) was tested, and the AC50 was inconclusive: 0.0444 µM.
In the case of `Clc1nc(Cl)c(Cl)c(Cl)c1Cl`, the AC50 is reported as inconclusive: 25 µM.

Each molecule was assayed against human FYN Proto-Oncogene, Src family Tyrosine Kinase (Fyn), FYN (gene 2534) (UniProt P06241) (assay: NVS_ENZ_hFyn: NovaScreen (NVS) Enzymatic Assay for human FYN Proto-Oncogene, Src family Tyrosine Kinase (Fyn) (AID 2283161)).
Experimental: NVS_ENZ_hFyn is a biochemical, single-readout assay that uses extracted gene-proteins in a cell-free assay. Measurements were taken 1 hour after chemical dosing in a 384-well plate.NVS_ENZ_hFyn is one of one assay component(s) measured or calculated from the NVS_ENZ_hFyn assay. It is designed to make measurements of enzyme activity, a form of enzyme reporter, as detected with fluorescence intensity signals by Fluorescence and electrophoretic mobility shift technology.Data from the assay component NVS_ENZ_hFyn was analyzed into 1 assay endpoint. This assay endpoint, NVS_ENZ_hFyn, was analyzed in the positive analysis fitting direction relative to DMSO as the negative control and baseline of activity. Using a type of enzyme reporter, loss-of-signal activity can be used to understand changes in the enzymatic activity as they relate to the gene FYN. Furthermore, this assay endpoint can be referred to as a primary readout, because this assay has produced multiple assay endpoints where this one serves a enzymatic activity function. To generalize the intended target to other relatable targets, this assay endpoint is annotated to the kinase intended target family, where the subfamily is non-receptor tyrosine kinase.
Binding assays used specific radioligands (tritiated, iodinated) with non-radioactive competitive displacement ligands in agonist or antagonist protocols (as indicated) and various reference compounds and inhibitors to titrate specific binding to receptors and transporters. Most enzyme assays (CYPs, kinases, phosphatases, proteases, HDACs) used recombinant protein and specific substrates (fluorescence mostly, some colorimetric and radioactive) and inhibitors, followed by a biochemical separation of substrate and product. All assays for the biochemical HTS were initially run in duplicate at a single concentration (10 uM for CYP450 assays and 25 uM for all others). […] Each assay was run with positive and negative controls, and concurrent controls on every plate. The follow-up (secondary) screen tested active chemical-pairs in concentration series, as well as a few additional assays not tested in the primary screen, some selected negative inactives, and several cases re-run in the concentration series for confirmatory purposes.
In the case of `CC(C)(C)c1csc(-c2cc3cc(OCc4ccccc4CC(=O)O)ccc3o2)n1`, the AC50 is reported as inconclusive: 25 µM.
With `CC1=C(/C=C/C(C)=C/C=C/C(C)=C/CO)C(C)(C)CCC1` the outcome was “inactive”.
For `Clc1nc(Cl)c(Cl)c(Cl)c1Cl`, the AC50 was inconclusive: 25 µM.

The molecules below were run against human LYN Proto-Oncogene, Src family Tyrosine Kinase (LynA), LYN (gene 4067) (UniProt P07948) (assay: NVS_ENZ_hLynA: NovaScreen (NVS) Enzymatic Assay for human LYN Proto-Oncogene, Src family Tyrosine Kinase (LynA) (AID 2283173)).
Outline: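 Recombinant kinase with fluorescent substrate; product separated from substrate by electrophoretic mobility shift and read 1 h after dosing. Duplicate screen at 25 uM, then concentration-response up to 50 uM; activity scored as signal loss against DMSO.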
With `CC(=O)C(C)=CC1C(C)=CCCC1(C)C` (stereo not given) the AC50 was inconclusive: 25 µM.
In the case of `CCCN(CCC)C(=O)SCC`, the AC50 is reported as inconclusive: 6.55 µM and inconclusive: 762 nM.
`Clc1nc(Cl)c(Cl)c(Cl)c1Cl` was tested, and the AC50 was inconclusive: 0.144 µM.
